{"source": "PubChem BioAssay AID1159578 (Peter MacCallum Cancer Centre, 2015)", "test": "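siRNA pools altering how lymphatic endothelial cells close a scratch wound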 (primary screen)", "cell system": "human lymphatic endothelial cells", "reagents": "siRNA pool against human genes, 40 nM", "duration": "48 h after transfection", "read-out": "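Cells stained with dye and imaged after a scratch; covered wound area and nuclei counted, duplicates averaged, migration set against mock wells and turned into a robust z-score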", "direction": "migration robust z-score: higher = faster migration into the scratch; nuclei per well: higher = more cells in the well", "call rule": "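Pools averaging fewer than 3300 nuclei are never called; remaining pools count as changed when migration robust z lies outside -2 to 2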", "meaning of the calls": "active = migration changed; inactive = no migration change, or too few cells", "note": "This is one part, drawn at random, of about 18,000 deposited reagents. In the full data, about 1,030 (5.7%) are marked active. 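Inactive calls also include pools with fewer than 3300 nuclei, whose migration was not assessed.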 The raw values are shown without normalisation. A number with no mark means an inactive call. Not all columns of the deposit are shown."}
{"Gene": "HERC2 (HECT and RLD domain containing E3 ubiquitin protein ligase 2)", "PubChem SID": "SID255353921", "migration robust z-score": 1.71, "nuclei per well, duplicate mean": 6582}
{"Gene": "CXXC1 (CXXC finger protein 1)", "PubChem SID": "SID255357294", "migration robust z-score": -1.66, "nuclei per well, duplicate mean": 4834}
{"Gene": "ACOX2 (acyl-CoA oxidase 2)", "PubChem SID": "SID255353458", "migration robust z-score": 0.2, "nuclei per well, duplicate mean": 4644}
{"Gene": "KCNN3 (potassium calcium-activated channel subfamily N member 3)", "PubChem SID": "SID255350628", "migration robust z-score": -1.34, "nuclei per well, duplicate mean": 4989}
{"Gene": "OR4F15 (olfactory receptor family 4 subfamily F member 15)", "PubChem SID": "SID255365658", "migration robust z-score": -0.07, "nuclei per well, duplicate mean": 7115}
{"Gene": "UROS (uroporphyrinogen III synthase)", "PubChem SID": "SID255353080", "migration robust z-score": -1.03, "nuclei per well, duplicate mean": 5410}
{"Gene": "RAET1E (retinoic acid early transcript 1E)", "PubChem SID": "SID255362991", "migration robust z-score": -0.38, "nuclei per well, duplicate mean": 6169}
{"Gene": "DNAJC5B (DnaJ heat shock protein family (Hsp40) member C5 beta)", "PubChem SID": "SID255361717", "migration robust z-score": 1.33, "nuclei per well, duplicate mean": 5279}
{"Gene": "LDLRAD1 (low density lipoprotein receptor class A domain containing 1)", "PubChem SID": "SID255365509", "migration robust z-score": 1.09, "nuclei per well, duplicate mean": 7532}
{"Gene": "SPRR2A (small proline rich protein 2A)", "PubChem SID": "SID255352605", "migration robust z-score": 0.3, "nuclei per well, duplicate mean": 6404}
{"Gene": "LEMD2 (LEM domain nuclear envelope protein 2)", "PubChem SID": "SID255364306", "migration robust z-score": -0.08, "nuclei per well, duplicate mean": 6317}
{"Gene": "FBXL7 (F-box and leucine rich repeat protein 7)", "PubChem SID": "SID255356060", "migration robust z-score": -0.28, "nuclei per well, duplicate mean": 5646}

2 entries from above, reduced to “nuclei per well, duplicate mean”:
UROS (uroporphyrinogen III synthase) [SID255353080]: 5410
RAET1E (retinoic acid early transcript 1E) [SID255362991]: 6169
